Measurements reported in the supplement of paper PMC10849652.
The list shows a part of the results.

The chains behind the UniProt entries cited, without tags or fusion partners. Where a name states a change or a piece, a line headed by the entry shows the natural chain unless it says otherwise.
UniProt Q9H019: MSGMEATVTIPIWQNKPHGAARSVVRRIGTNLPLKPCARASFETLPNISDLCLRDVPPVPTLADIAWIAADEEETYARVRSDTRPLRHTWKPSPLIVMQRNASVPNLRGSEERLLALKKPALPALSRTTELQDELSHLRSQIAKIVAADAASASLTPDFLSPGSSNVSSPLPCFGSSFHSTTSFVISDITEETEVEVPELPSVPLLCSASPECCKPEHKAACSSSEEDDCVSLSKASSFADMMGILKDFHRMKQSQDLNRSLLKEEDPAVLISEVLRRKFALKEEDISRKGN
UniProt P20585: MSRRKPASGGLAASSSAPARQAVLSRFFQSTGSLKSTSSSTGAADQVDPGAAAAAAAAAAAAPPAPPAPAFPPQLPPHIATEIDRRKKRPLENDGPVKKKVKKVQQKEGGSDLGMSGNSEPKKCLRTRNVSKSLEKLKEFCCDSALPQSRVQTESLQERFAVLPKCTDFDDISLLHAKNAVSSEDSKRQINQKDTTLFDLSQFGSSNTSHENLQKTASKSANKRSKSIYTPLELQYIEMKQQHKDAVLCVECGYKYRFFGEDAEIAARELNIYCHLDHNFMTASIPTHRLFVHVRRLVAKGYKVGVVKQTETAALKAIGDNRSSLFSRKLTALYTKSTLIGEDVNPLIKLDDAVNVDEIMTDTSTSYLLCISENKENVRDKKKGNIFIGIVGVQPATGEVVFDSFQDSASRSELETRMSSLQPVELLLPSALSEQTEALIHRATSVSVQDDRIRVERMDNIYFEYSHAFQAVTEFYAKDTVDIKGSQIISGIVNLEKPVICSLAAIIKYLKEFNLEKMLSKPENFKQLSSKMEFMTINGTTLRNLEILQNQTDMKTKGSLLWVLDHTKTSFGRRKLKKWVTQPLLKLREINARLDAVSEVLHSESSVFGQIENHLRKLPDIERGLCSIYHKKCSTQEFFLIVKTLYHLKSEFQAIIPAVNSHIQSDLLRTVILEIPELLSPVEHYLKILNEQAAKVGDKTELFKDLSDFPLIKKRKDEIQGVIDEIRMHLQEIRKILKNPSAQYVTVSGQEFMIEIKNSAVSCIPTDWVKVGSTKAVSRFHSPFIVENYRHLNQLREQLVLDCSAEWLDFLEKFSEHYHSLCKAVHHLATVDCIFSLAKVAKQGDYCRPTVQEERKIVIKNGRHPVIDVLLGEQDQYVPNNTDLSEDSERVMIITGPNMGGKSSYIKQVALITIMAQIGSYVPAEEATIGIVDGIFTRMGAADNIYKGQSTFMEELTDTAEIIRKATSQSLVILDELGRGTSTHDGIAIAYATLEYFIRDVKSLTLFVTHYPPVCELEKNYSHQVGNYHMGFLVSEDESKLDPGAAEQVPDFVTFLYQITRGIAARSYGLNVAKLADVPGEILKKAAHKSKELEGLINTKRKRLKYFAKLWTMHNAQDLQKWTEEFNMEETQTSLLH
UniProt Q9UGC7: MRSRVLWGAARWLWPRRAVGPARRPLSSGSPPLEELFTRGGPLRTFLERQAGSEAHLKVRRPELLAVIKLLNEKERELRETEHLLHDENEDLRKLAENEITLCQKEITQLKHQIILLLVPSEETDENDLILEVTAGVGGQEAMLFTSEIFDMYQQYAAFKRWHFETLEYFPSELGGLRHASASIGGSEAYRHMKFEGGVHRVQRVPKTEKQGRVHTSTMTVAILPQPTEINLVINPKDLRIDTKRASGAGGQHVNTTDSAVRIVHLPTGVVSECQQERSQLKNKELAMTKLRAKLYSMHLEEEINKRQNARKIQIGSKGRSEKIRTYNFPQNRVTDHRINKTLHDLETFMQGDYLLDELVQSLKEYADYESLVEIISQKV
UniProt Q86UE4: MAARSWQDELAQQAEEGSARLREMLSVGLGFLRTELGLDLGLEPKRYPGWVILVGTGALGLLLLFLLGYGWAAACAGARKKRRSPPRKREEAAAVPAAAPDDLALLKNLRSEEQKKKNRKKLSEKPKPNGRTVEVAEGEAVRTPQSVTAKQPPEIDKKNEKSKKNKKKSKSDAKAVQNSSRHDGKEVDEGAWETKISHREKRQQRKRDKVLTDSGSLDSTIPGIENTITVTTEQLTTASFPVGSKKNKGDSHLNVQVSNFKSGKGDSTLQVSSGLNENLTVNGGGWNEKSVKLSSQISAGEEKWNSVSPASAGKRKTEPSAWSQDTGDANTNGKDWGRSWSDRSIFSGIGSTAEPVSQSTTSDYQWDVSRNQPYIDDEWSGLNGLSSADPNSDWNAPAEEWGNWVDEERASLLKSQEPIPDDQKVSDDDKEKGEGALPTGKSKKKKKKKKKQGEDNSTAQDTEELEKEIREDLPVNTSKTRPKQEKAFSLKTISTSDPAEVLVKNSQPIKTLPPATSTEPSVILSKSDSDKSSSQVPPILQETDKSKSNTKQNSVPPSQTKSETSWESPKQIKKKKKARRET

Assays:
Assay in all cases: log2 fold change, soluble protein after heating vs DMSO (PISA); higher = thermal stabilisation; K562 lysate, 10 uM; active = over 0.2 and 3.5 SD of the protein, either way, in both replicates (recomputed)
erlotinib = compound: C#Cc1cccc(Nc2ncnc3cc(OCCOC)c(OCCOC)cc23)c1 [erlotinib]
In short: (§1)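 Thermal stability, expressed as log-two fold change relative to solvent controls, is given from duplicates. Crude K562 extract in PBS pH 7.4 with 1 mM MgCl2, at 1 mg/mL protein, was treated with 10 μM compound for 30 min and heated in aliquots for 3 min across 48°C-58°C. After pooling, adjustment to 0.5% NP-40 at 4°C and centrifugation at 21,000xg for 90 min, supernatant protein was measured by TMTpro 16plex LC-MS/MS with channel sums equalised.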

[1] = compound: C/C(=N\NC(=O)C1=CC(=CC=C1)S(=O)(=O)N2CCOCC2)/C3=C(C=CC(=C3)Cl)O
In short: as §1

[2] = compound: C1=CC(=CC=C1C2=NC3=C(N2)C=C(C=C3)C(=O)N)OC4=CC=C(C=C4)Cl
In short: as §1

[3] = compound: C1=CC2=C(C=CC(=C2)/C=C\3/C(=O)NC(=NCC4=CC=CS4)S3)N=C1
In short: as §1

[4] = compound: C1=CC2=NC=CN=C2C=C1/C=C/3\C(=O)NC(=O)S3
In short: as §1

[5] = compound: C1=CC=C(C=C1)C2=NC(=C(N2)C3=CC=NC=C3)C4=CC(=C(C=C4)Cl)O
In short: as §1

[6] = compound: C1=CC=C2C(=C1)C3=NNC4=CC=CC(=C43)C2=O
In short: as §1

[7] = compound: C1CCN(C1)C(=O)NC2=CC=CC(=C2)NC3=NC=C(C(=N3)NCCC4=CN=CN4)Br
In short: as §1

[8] = compound: C1CN(CCC1(CC2=CC=C(C=C2)Cl)N)C3=NC=NC4=C3C=CN4
In short: as §1

IRAK-1-4 Inhibitor I = compound: C1COCCN1CCN2C3=CC=CC=C3N=C2NC(=O)C4=CC(=CC=C4)[N+](=O)[O-] [IRAK-1-4 Inhibitor I]
In short: as §1

ibrutinib = compound: C=CC(=O)N1CCC[C@@H](n2nc(-c3ccc(Oc4ccccc4)cc3)c3c(N)ncnc32)C1 [ibrutinib]
In short: as §1

[9] = compound: CC(=O)c1cnc2ccc(-c3cc(Cl)c(O)c(Cl)c3)nc2c1N[C@H]1CC[C@H](CN(C)C)CC1
In short: as §1

ralimetinib = compound: CC(C)(C)Cn1c(N)nc2ccc(-c3[nH]c(C(C)(C)C)nc3-c3ccc(F)cc3)nc21 [ralimetinib]
In short: as §1

[10] = compound: CC(C)(O)CC(=O)NCCn1ccc2ncnc(Nc3ccc(Oc4cccc(C(F)(F)F)c4)c(Cl)c3)c21
In short: as §1

[11] = compound: CC(C)C1=C2N=C(C=C(N2N=C1)NCC3=CC=CC=C3)NCCCCCCN
In short: as §1

[12] = compound: CC1=C(C(CC(=O)N1)C2=CC=C(C=C2)C(F)(F)F)C(=O)NC3=C(C=C4C(=C3)C=NN4)F
In short: as §1

[13] = compound: CC1=C(C2=C(C=C1)C(=O)C3=CC=CC=C3N2CCCN)C
In short: as §1

[14] = compound: CC1=C(C=C(C=C1)NC(=O)C2=CC(=CC=C2)C(C)(C)C#N)NC3=CC4=C(C=C3)N=CN(C4=O)C
In short: as §1

[15] = compound: CC1=C(C=C(C=C1)NC(=O)C2=CC(=CC=C2)N(C)C)NC(=O)C3=CC=C(C=C3)O
In short: as §1

[16] = compound: CC1=CC=C(C=C1)SC2=C3C=C(SC3=CN=C2)C(=O)N
In short: as §1

Measured: log2 fold change

MTFR1L (UniProt Q9H019)
inactive: erlotinib -0.017 | [1] -0.024 | [2] -0.067 | [3] -0.048 | [4] 0.013 | [5] -0.034 | [6] -0.055 | [7] -0.041 | [8] -0.035 | IRAK-1-4 Inhibitor I 0.009 | ibrutinib 0.119 | [9] -0.052 | ralimetinib 0.061 | [10] -0.019 | [11] 0.049 | [12] 0.084 | [13] -0.009 | [14] 0.08 | [15] 0.028 | [16] -0.048

MSH3 (UniProt P20585)
inactive: erlotinib -0.046 | [1] -0.021 | [2] 0.042 | [3] 0.011 | [4] -0.025 | [5] 0.007 | [6] -0.026 | [7] -0.038 | [8] 0.058 | IRAK-1-4 Inhibitor I 0.004 | ibrutinib 0 | [9] -0.017 | ralimetinib 0.024 | [10] -0.037 | [11] -0.039 | [12] 0.023 | [13] -0.025 | [14] -0.018 | [15] -0.007 | [16] -0.005

MTOR (UniProt P42345)
inactive: erlotinib 0.02 | [1] 0.031 | [2] -0.058 | [3] -0.022 | [4] 0.038 | [5] 0.025 | [6] -0.018 | [7] -0.012 | [8] 0.003 | IRAK-1-4 Inhibitor I 0.006 | ibrutinib -0.016 | [9] 0.001 | ralimetinib 0.018 | [10] -0.005 | [11] -0.043 | [12] 0.02 | [13] 0.019 | [14] 0.031 | [15] 0.058 | [16] -0.013

MTRF1L (UniProt Q9UGC7)
inactive: erlotinib -0.013 | [1] -0.362 | [2] 0.072 | [3] 0.055 | [4] -0.008 | [5] 0.093 | [6] 0.079 | [7] 0.01 | [8] -0.098 | IRAK-1-4 Inhibitor I -0.003 | ibrutinib 0.001 | [9] -0.007 | ralimetinib -0.029 | [10] -0.021 | [11] -0.045 | [12] 0.053 | [13] -0.058 | [14] 0.025 | [15] -0.001 | [16] -0.051

MRPL32 (UniProt Q9BYC8)
inactive: erlotinib -0.008 | [1] -0.028 | [2] 0.005 | [3] 0.046 | [4] -0.009 | [5] -0.005 | [6] -0.013 | [7] -0.009 | [8] 0.06 | IRAK-1-4 Inhibitor I -0.001 | ibrutinib 0.071 | [9] 0.038 | ralimetinib -0.032 | [10] 0.003 | [11] -0.005 | [12] 0.006 | [13] -0.037 | [14] 0.06 | [15] 0.013 | [16] 0.016

MRPS18B (UniProt Q9Y676)
inactive: erlotinib 0.024 | [1] -0.065 | [2] -0.028 | [3] 0.034 | [4] -0.04 | [5] 0.033 | [6] 0.008 | [7] -0.005 | [8] -0.015 | IRAK-1-4 Inhibitor I 0.153 | ibrutinib 0.019 | [9] 0.057 | ralimetinib -0.041 | [10] -0.117 | [11] 0.085 | [12] -0.047 | [13] -0.061 | [14] 0.051 | [15] 0.077 | [16] -0.031

MRPS35 (UniProt P82673)
inactive: erlotinib 0.025 | [1] -0.12 | [2] 0.009 | [3] 0.021 | [4] -0.024 | [5] 0.005 | [6] -0.044 | [7] -0.029 | [8] -0.065 | IRAK-1-4 Inhibitor I 0.04 | ibrutinib -0.005 | [9] -0.067 | ralimetinib -0.004 | [10] 0.002 | [11] -0.005 | [12] -0.026 | [13] -0.039 | [14] 0.001 | [15] 0.028 | [16] -0.027

MRPL52 (UniProt Q86TS9)
inactive: erlotinib 0.095 | [1] -0.067 | [2] 0.007 | [3] 0.242 | [4] -0.015 | [5] 0.003 | [6] -0.088 | [7] 0 | [8] -0.112 | IRAK-1-4 Inhibitor I -0.031 | ibrutinib 0.182 | [9] -0.048 | ralimetinib 0.006 | [10] -0.001 | [11] -0.073 | [12] 0.078 | [13] -0.014 | [14] -0.013 | [15] -0.056 | [16] -0.034

Quoted from the listing (2 entries):
MTRF1L (UniProt Q9UGC7)
inactive: erlotinib -0.013 | [1] -0.362 | [2] 0.072 | [3] 0.055 | [4] -0.008 | [5] 0.093 | [6] 0.079 | [7] 0.01 | [8] -0.098 | IRAK-1-4 Inhibitor I -0.003 | ibrutinib 0.001 | [9] -0.007 | ralimetinib -0.029 | [10] -0.021 | [11] -0.045 | [12] 0.053 | [13] -0.058 | [14] 0.025 | [15] -0.001 | [16] -0.051

MRPL32 (UniProt Q9BYC8)
inactive: erlotinib -0.008 | [1] -0.028 | [2] 0.005 | [3] 0.046 | [4] -0.009 | [5] -0.005 | [6] -0.013 | [7] -0.009 | [8] 0.06 | IRAK-1-4 Inhibitor I -0.001 | ibrutinib 0.071 | [9] 0.038 | ralimetinib -0.032 | [10] 0.003 | [11] -0.005 | [12] 0.006 | [13] -0.037 | [14] 0.06 | [15] 0.013 | [16] 0.016

(next part)

MRPL46 (UniProt Q9H2W6)
inactive: erlotinib -0.027 | [1] -0.01 | [2] -0.039 | [3] -0.124 | [4] -0.069 | [5] 0.023 | [6] 0.089 | [7] -0.009 | [8] -0.064 | IRAK-1-4 Inhibitor I 0.035 | ibrutinib -0.101 | [9] 0.018 | ralimetinib 0.048 | [10] 0.026 | [11] -0.064 | [12] -0.002 | [13] 0.005 | [14] -0.002 | [15] 0.026 | [16] 0.021

MRPS27 isoform 2 (UniProt Q92552)
inactive: erlotinib 0.035 | [1] -0.03 | [2] 0.052 | [3] 0.016 | [4] -0.003 | [5] 0.01 | [6] -0.078 | [7] 0 | [8] 0.009 | IRAK-1-4 Inhibitor I 0.033 | ibrutinib -0.015 | [9] -0.01 | ralimetinib 0.016 | [10] -0.004 | [11] 0.026 | [12] -0.041 | [13] -0.051 | [14] 0.031 | [15] 0.036 | [16] -0.002

MTDH (UniProt E5RJU9)
inactive: erlotinib 0.026 | [1] -0.009 | [2] 0.177 | [3] 0.057 | [4] -0.314 | [5] -0.014 | [6] -0.117 | [7] -0.192 | [8] 0.12 | IRAK-1-4 Inhibitor I 0.069 | ibrutinib -0.047 | [9] -0.246 | ralimetinib -0.128 | [10] -0.136 | [11] 0.117 | [12] -0.115 | [13] -0.213 | [14] -0.025 | [15] -0.001 | [16] 0.028

MRPS6 (UniProt P82932)
inactive: erlotinib 0.014 | [1] -0.045 | [2] 0.049 | [3] -0.04 | [4] -0.027 | [5] -0.037 | [6] -0.032 | [7] 0 | [8] 0.098 | IRAK-1-4 Inhibitor I -0.04 | ibrutinib 0.036 | [9] 0.039 | ralimetinib 0.016 | [10] -0.012 | [11] -0.034 | [12] 0.065 | [13] -0.063 | [14] 0.05 | [15] 0.037 | [16] 0.03

MTDH (UniProt Q86UE4)
inactive: erlotinib -0.014 | [1] -0.033 | [2] 0.036 | [3] 0.003 | [4] -0.018 | [5] -0.021 | [6] -0.026 | [7] 0.023 | [8] 0.004 | IRAK-1-4 Inhibitor I -0.006 | ibrutinib 0.012 | [9] -0.009 | ralimetinib 0.01 | [10] -0.015 | [11] 0.01 | [12] 0.006 | [13] -0.036 | [14] 0.007 | [15] 0.007 | [16] -0.018

MRPL4 (UniProt Q9BYD3)
inactive: erlotinib 0.105 | [1] -0.218 | [2] -0.027 | [3] -0.009 | [4] 0.023 | [5] -0.022 | [6] -0.061 | [7] 0.022 | [8] 0.02 | IRAK-1-4 Inhibitor I 0.014 | ibrutinib 0.042 | [9] -0.063 | ralimetinib 0.021 | [10] -0.029 | [11] 0.013 | [12] -0.018 | [13] -0.02 | [14] 0.006 | [15] -0.016 | [16] -0.013

MRPS16 (UniProt Q9Y3D3)
inactive: erlotinib -0.005 | [1] -0.144 | [2] 0.032 | [3] -0.053 | [4] -0.092 | [5] -0.045 | [6] 0.032 | [7] 0.008 | [8] -0.036 | IRAK-1-4 Inhibitor I -0.041 | ibrutinib 0.099 | [9] 0.007 | ralimetinib -0.003 | [10] 0.009 | [11] 0.078 | [12] -0.03 | [13] -0.046 | [14] -0.01 | [15] 0.056 | [16] -0.056

MRPL53 (UniProt Q96EL3)
inactive: erlotinib -0.036 | [1] -0.103 | [2] 0.042 | [3] 0.014 | [4] -0.004 | [5] -0.015 | [6] -0.049 | [7] -0.07 | [8] 0.096 | IRAK-1-4 Inhibitor I 0.026 | ibrutinib 0.041 | [9] -0.018 | ralimetinib 0.062 | [10] -0.047 | [11] 0.016 | [12] -0.047 | [13] 0.011 | [14] 0.042 | [15] 0.044 | [16] 0.011
